## Binding screen against folded nucleic acids

Calls as published in the ROBIN set (doi:10.1002/anie.202211358).

Targets (5′ to 3′):
SAM-II: SAM-II riboswitch RNA pseudoknot, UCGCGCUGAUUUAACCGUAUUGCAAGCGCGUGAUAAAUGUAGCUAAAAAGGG. About 21,000 compounds screened, about 200 hits.
TPP: TPP riboswitch RNA three-way junction, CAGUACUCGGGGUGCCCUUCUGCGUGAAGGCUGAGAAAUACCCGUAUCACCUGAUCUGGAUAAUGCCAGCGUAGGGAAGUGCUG. About 24,000 compounds screened, about 160 hits.
PreQ1: PreQ1 riboswitch RNA pseudoknot, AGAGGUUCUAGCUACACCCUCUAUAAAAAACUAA. From B. subtilis. About 24,000 compounds screened, about 170 hits.

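Compounds were printed on reactive glass slides in duplicate spots, a dye-labelled oligonucleotide was laid over them, and the fluorescence left after washing was read. The data file lists only calls. An earlier report of the laboratory on the PreQ1, TPP and SAM-II riboswitches (doi:10.1038/s41467-019-09493-3) used 1 µM RNA for 2 h and required a mean Z-score above 3 (spot signal-to-noise against the whole library), a score well above that on a control array, and duplicate spots agreeing (coefficient of variation under 100); it then also set aside compounds that hit other targets, which this list keeps. The cut-offs behind this list may differ. A missing hit is not proof of no binding, and a hit is not a measured affinity.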
“hit” means called a hit, “none” means screened and not called a hit.
Compounds were drawn at random from those tested, without regard to their results.
A target missing from an entry has no call listed here.
A dash means that no call is listed here.

compound	SAM-II	TPP	PreQ1
OC1(CNC2c3ccccc3-c3ccccc32)CCNC1 (centres unmarked)	none	none	none
COc1ccc(NC2=CC(=S)NC(C)(C)C2)cc1	none	none	none
Cc1cc(Nc2ccc(N(C)C)cc2)n2nc(-c3cccnc3)nc2n1	-	none	none
NC12CC3CC(C1)CC(n1cncn1)(C3)C2	none	none	none
Cc1ccc(NCc2nc3ccccc3n2C)c(C)c1	none	none	none
O=C(O)C1CNCCN(C(=O)C2CCN(CCO)CC2)C1 (centres unmarked)	none	none	none
O=C(c1ccc2nccn2c1)N(Cc1ccccc1)[C@@H]1CCCC[C@H]1O	none	none	none
Nc1nc2c(s1)c(=O)[nH]c(=O)n2-c1ccccc1Cl	none	none	none
CCc1csc(CNC(=O)[C@@H](N)CC2CCCCC2)n1	none	none	none
NC(=S)NC(=O)c1ccccc1	none	none	none
CC(C)(C)c1ccc(C2CC(=O)c3cnc(N)nc3C2)cc1 (centres unmarked)	none	none	none
CCOC(=O)c1ccc(NCc2nc3ccccc3n2C)cc1	none	none	none
COc1ccccc1C(CCNCc1ccco1)c1ccc(OC(C)C)cc1 (centres unmarked)	none	none	none
CSc1nc(C)cc(Nc2ccc(Cl)cc2C)n1	-	none	none
Nc1ccc(-n2cc(Cl)cn2)cc1	none	none	none
O=C(NC[C@@H]1C[C@H](F)CN1)OCc1ccccc1	none	none	none
CCOC(=O)c1ccc(N2C(=O)C3C4C=CC(CO)(O4)C3C2=O)cc1 (centres unmarked)	none	none	none
C[C@]12COC(=O)C[C@@H]1CC[C@@H]1[C@H]2CC[C@@]2(C)[C@H]1CC[C@]2(C)O	none	none	none
COc1ccc(CNC(=O)c2nn(-c3ccc(C)cc3)nc2CO)cc1	-	none	none
COc1cccc([C@H]2CN(C(=O)c3ccc(-n4cnnc4)nc3)C[C@@H]2N)c1	none	none	none
Cc1nc(C(F)(F)F)nc(N2CCN(C3CCCC3)C(CCO)C2)c1C (centres unmarked)	none	none	none
CC(O)c1nc2ccccc2n1Cc1c(F)cccc1Cl (centres unmarked)	-	none	none
COc1ccccc1Nc1nc(-c2sc(N)nc2C)cs1	none	none	none
COc1ccccc1Nc1ncc(C(=O)N2CCCCC2)c2ccccc12	none	none	none
Cc1nn(CC(=O)NC(CO)C2CCSCC2)c(=O)c2ccccc12 (centres unmarked)	none	none	none
Cc1c(CCO)c(=O)n2n1CCCC2	none	none	none
O=C(O)C1=CO[C@@H](O[C@@H]2O[C@H](CO)[C@H](O)[C@@H](O)[C@H]2O)[C@@H]2C(CO)=CC[C@H]12	none	none	none
Cc1cc(O)nc(Nc2nc(C)c3cc(C)c(C)cc3n2)n1	none	none	none
O=C1c2ccccc2C(=O)C1c1ccccn1	none	none	none
Clc1ccc(C(Cn2ccnc2)OCc2ccc(Sc3ccccc3)cc2)c(Cl)c1 (centres unmarked)	none	none	none
OC(Cn1ccc2ccccc21)Cn1c(Cc2ccccc2)nc2ccccc21 (centres unmarked)	none	none	none
CCc1cc2c(=O)c(-c3nc(C)cs3)coc2cc1OC(C)C(=O)NCCO (centres unmarked)	none	none	none
O[C@H]1CN(c2nc3ccccc3s2)C[C@@H]1N1CCOCC1	none	none	none
CSCCc1nc(CC2CCS(=O)(=O)C2)n(CCO)n1 (centres unmarked)	none	none	none
CCCc1nc(C(=O)N2CCC(C(O)c3cccs3)CC2)cs1 (centres unmarked)	none	none	none
O=C1c2ccccc2C(Nc2ccc(Br)cc2F)N1c1ccc(Cl)cn1 (centres unmarked)	none	none	none
Cc1ccc(Nc2ncnc3sc(C)c(C)c23)cc1	none	none	none
CNC(=O)c1cccc(NC(=O)NCCCc2csc(N)n2)c1C	none	none	none
CCCCOc1cccc(C2c3c(-c4c(C)cc(C)cc4O)n[nH]c3C(=O)N2CCO)c1 (centres unmarked)	-	none	none
O=c1nc[nH]c2c1ncn2Cc1ccc([N+](=O)[O-])cc1	none	none	none
Cc1nn(C)cc1C(=O)N[C@H]1CC[C@H]1NC(C)C	none	none	none
CC(NCCC(=O)Nc1nccs1)c1ccccc1-n1cccn1 (centres unmarked)	none	none	none
CCCCNC(=O)Nc1ccccc1CC	none	none	none
CC1=C(C(=O)OC(C)C)C2(C(=O)Nc3ccccc32)C(C#N)=C(N)O1 (centres unmarked)	none	none	none
Cn1c(=N)n(CC(O)c2ccccc2)c2ccccc21 (centres unmarked)	none	none	none
CC(O)c1cccc(-c2cc(NCc3cccnc3)nc3[nH]ccc23)c1 (centres unmarked)	none	none	none
O=C1SC(Nc2ccccc2Br)C(=O)N1c1ccccc1 (centres unmarked)	none	none	none
COc1ccccc1NC1CCCCC1NS(=O)(=O)c1ccccc1 (centres unmarked)	-	none	none
COc1ccccc1C1C(C#N)=C(N)Oc2cc(C)n(Cc3ccc4c(c3)OCO4)c(=O)c21 (centres unmarked)	none	none	none
COc1cc(=O)n2c(c1-c1nc(-c3cccnn3)no1)CCNCC2	none	none	none
COc1ccccc1Nc1c(C#N)c2c(c3nncn13)CCCC2	none	none	none
CC(=O)OC1C(C)OC(Oc2c(-c3ccc(O)cc3)oc3cc(O)cc(O)c3c2=O)C(O)C1OC(C)=O (centres unmarked)	none	none	none
Cn1c(S)nnc1-c1sc2ncccc2c1N	none	none	none
Cc1c(Cl)cccc1-c1ccc(CNc2nc[nH]n2)o1	-	none	none

Some entries from above, unchanged:

- CC(NCCC(=O)Nc1nccs1)c1ccccc1-n1cccn1 (centres unmarked) | SAM-II: none; TPP: none; PreQ1: none
- Nc1nc2c(s1)c(=O)[nH]c(=O)n2-c1ccccc1Cl | SAM-II: none; TPP: none; PreQ1: none
- Cc1ccc(NCc2nc3ccccc3n2C)c(C)c1 | SAM-II: none; TPP: none; PreQ1: none
- CCOC(=O)c1ccc(N2C(=O)C3C4C=CC(CO)(O4)C3C2=O)cc1 (centres unmarked) | SAM-II: none; TPP: none; PreQ1: none
- CC(O)c1nc2ccccc2n1Cc1c(F)cccc1Cl (centres unmarked) | TPP: none; PreQ1: none
- CCCc1nc(C(=O)N2CCC(C(O)c3cccs3)CC2)cs1 (centres unmarked) | SAM-II: none; TPP: none; PreQ1: none
- CSCCc1nc(CC2CCS(=O)(=O)C2)n(CCO)n1 (centres unmarked) | SAM-II: none; TPP: none; PreQ1: none